Data: PubChem BioAssay AID652054 (National Center for Advancing Translational Sciences (NCATS), 2013)
In all, about 360,000 compounds went through this assay and about 9,100 (2.5%) were called active. This list was built around the results that the source calls inconclusive (neither active nor inactive); the mix of calls is not that of the screen. Cut-off read from the data, not from the text of the source: active = max response below about -50%; inconclusive = no clear call, values can overlap the other calls; inactive = above that.

By UniProt entry, the sequences of proteins in these tests, tags left out.
UniProt P35462, whole entry, looked up: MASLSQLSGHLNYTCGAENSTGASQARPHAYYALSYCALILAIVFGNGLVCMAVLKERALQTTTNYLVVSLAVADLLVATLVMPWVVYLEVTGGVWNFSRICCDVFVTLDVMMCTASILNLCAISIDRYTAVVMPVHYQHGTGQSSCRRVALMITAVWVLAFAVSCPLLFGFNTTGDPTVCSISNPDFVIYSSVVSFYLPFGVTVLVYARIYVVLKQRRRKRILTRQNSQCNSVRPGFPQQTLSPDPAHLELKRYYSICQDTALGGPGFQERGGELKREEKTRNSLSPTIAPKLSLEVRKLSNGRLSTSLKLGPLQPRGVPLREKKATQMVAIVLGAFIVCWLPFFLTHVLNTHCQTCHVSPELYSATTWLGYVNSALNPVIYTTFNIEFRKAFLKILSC

These compounds were tested against D(3) dopamine receptor (Homo sapiens) (UniProt P35462) (assay: qHTS of D3 Dopamine Receptor Antagonist: qHTS). Settings: D3R cells, DiscoveRx beta-arrestin luminescence, antagonist mode; active compounds read low.
Method in brief: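 Cells plated overnight at 1500 cells/well, then exposed to library compounds with dopamine controls for 90 minutes at 37 degrees C. DiscoveRx reagent added for 30–60 minutes at room temperature; luminescence read, quantitative HTS format.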
% is set by controls: 0 for no effect and ±100 for the full control effect.

Max response, negative = inhibition, inconclusive:
CSc1ccc(CN(C)CC(=O)Nc2cccc(Br)c2)cc1 -41.1%
CCCN1CCN(S(=O)(=O)c2ccc(OC)c(Br)c2)CC1 -48.6%
CC(=O)c1sc(NC(=O)C2(F)C(F)(F)C(F)(F)C(F)(F)C(F)(F)C2(F)F)nc1C -39.6%
CCOC(=O)N1CCN(C(=O)c2ccc3c(c2)sc2nc(-c4ccccc4)cn23)CC1 -39.6%
CCCN1C(=O)CN(C2CCCCCC2)C(=O)C1c1ccc(C)cc1 (stereo unspecified) -36.3%
Cc1ccc(C)c(SCc2noc(C(=O)NC(C)C)c2C(=O)O)c1 -43.7%
Cc1cccc(-c2noc(CN(C(=O)C34CC5CC(CC(C5)C3)C4)C(C)C)n2)c1 -40.4%
Cc1ccc2c(c1)N(C(=O)CCC(=O)NC1CCCCCC1)CCO2 -36.5%
CC1=N/C(=C\c2ccc3c(c2)OCO3)C(=O)N1c1ccc(C(=O)O)cc1 -33.2%
O=C(CCl)Nc1ccccc1Sc1ccc(Cl)cc1 -49%
CCCCCCSc1ccc([C@H]2N[C@@](C)(C(=O)OC)[C@H]3C(=O)N(CC)C(=O)[C@@H]23)cc1 -37.2%
O=C(NNc1cc(Br)c(O)c(Br)c1)c1ccccc1 -43.2%
O=c1c2ccccc2n(Cc2cccc(F)c2)c(=O)n1C1CCCC1 -48.2%
C1CCN2C[C@@H]3C[C@@H](CN4CCCC[C@@H]34)[C@H]2C1 -45.9%
CSc1cccc(NC(=S)N(CCC(C)C)C(C)c2ccncc2)c1 (stereo unspecified) -31.5%
Cc1ccccc1N=Cc1cccc(O)c1O -30.3%
CC(=O)Nc1ccc(C(=O)COC(=O)CN2C(=O)NC3(CCCCC3C)C2=O)cc1 (stereo unspecified) -33.3%
C=C1CN(CC(=O)OC)S(=O)(=O)c2ccccc21 -32.7%
O=C(c1ccco1)N1CCCC(N2CCN(c3ccccc3F)CC2)C1 (stereo unspecified) -36.3%
COc1ccccc1CCNC(=O)CSc1nc(-c2ccco2)cc(C(F)(F)F)n1 -39.6%
COc1cc(/C=N/NC(=O)CNc2n[nH]c(=O)[nH]c2=O)ccc1O -30.5%
Cc1noc(C)c1S(=O)(=O)N1CCCC1C(=O)O (stereo unspecified) -30.5%
Cc1[nH]c(=O)c(C(=O)/C=C/c2ccccc2F)c2c1CCCC2 -42.2%
Cc1ccc(NC(=O)CCC(=O)NN=Cc2ccc(C)o2)c(C)c1 -48.8%
CC1Cc2cc(/C(O)=C3/C(=O)C(=O)N(CCN4CCOCC4)C3c3cccc(Cl)c3)ccc2O1 (stereo unspecified) -48.2%
O=S(=O)(Nc1ccc2c(c1)nc1n2CCN(Cc2ccccc2)C1)c1ccccc1 -30.9%
O=c1oc(-c2ccccc2Br)nc2ccccc12 -33.8%
O=C(COC(=O)Cc1n[nH]c(=O)c2ccccc12)NNC(=O)c1ccc(Br)cc1 -35.2%
Cc1cc2oc(=O)cc(CSc3nc(N)cc(N)n3)c2cc1C -47.8%
COc1ccccc1N(C)S(=O)(=O)c1ccc(C(=O)NC2CCCCC2)cc1 -36.6%
CCOc1cccc(C2C(C(=O)c3ccc(C)o3)=C(O)C(=O)N2c2nccs2)c1 (stereo unspecified) -34.5%
Cc1ccc(S(=O)(=O)NC(C)(C)CN2CCc3ccccc3C2)cc1 -47.4%
CC(=O)Nc1ccc2ccc3cccc4ccc1c2c34 -41.4%
COC(=O)c1c(NC(=O)/C=C/C(=O)O)sc(C)c1-c1ccc(C(C)C)cc1 -46.5%
CCN(C(=O)COC(=O)c1ccc[nH]c1=O)c1cccc2ccccc12 -31.3%
CCN(C[C@H]1N[C@@](CC)(C(=O)OC)[C@H]2C(=O)N(Cc3ccccc3)C(=O)[C@@H]12)S(=O)(=O)c1ccc(-c2ccccc2)cc1 -35.7%
COc1ccccc1NS(=O)(=O)c1ccc(N/N=C/c2ccccc2OCC(=O)O)c([N+](=O)[O-])c1 -45.3%
CC(CN1CCCCC1)OC(=O)c1ccc(Cl)cc1Cl (stereo unspecified) -45.4%
Cc1ccc(/C=N/NC(=O)C2CCN(Cc3ccc(F)cc3Cl)CC2)o1 -30.7%
COc1ccc(/C=C/C(=O)NCc2cnn(C)c2C)cc1COc1ccc(Br)cc1 -30.6%
CCOc1cc(C)c(C(C)C)cc1S(=O)(=O)n1ccc(C)n1 -46.2%
Nc1nc(Sc2ccc(C(F)(F)F)cc2[N+](=O)[O-])n[nH]1 -42.5%
O=C(OCC(=O)c1c[nH]c2ccccc12)c1ccc(Br)o1 -39.4%
CC(C)Oc1ccc(Cn2c(-c3ccco3)n[nH]c2=S)cc1 -35.5%
Fc1cccc(Cc2c(-c3ccc(Cl)cc3)nc3ccc(Cl)cn23)c1 -30.5%
CCOc1ccc(/C=N/NC(=O)c2ccncc2)cc1OC -35.7%
O=C(NC(=O)N1CCN(c2ccc(F)cc2)CC1)c1ccccc1 -38.6%
CC(=O)Nc1ccc(S(=O)(=O)/N=C2\SCCN2S(=O)(=O)c2ccc(NC(C)=O)cc2)cc1 -40.9%
CC(C)C[C@@H](COc1ccccc1)N1CCN(CCc2ccccc2)CCC1=O -34.8%
CC1(C)C(C=C(Cl)Cl)C1C(=O)Nc1ccc([N+](=O)[O-])cc1 (stereo unspecified) -42.2%
COc1ccc([C@H]2CC(=O)C=C(c3ccccc3-c3ccccc3)C2)cc1 -48.8%
N#C/C(=N\Nc1c(Cl)cccc1Cl)C(=O)NN -30.3%

Molecules from the list above that have an NH in an aromatic ring:
Max response, negative = inhibition, inconclusive:
COc1cc(/C=N/NC(=O)CNc2n[nH]c(=O)[nH]c2=O)ccc1O -30.5%
Cc1[nH]c(=O)c(C(=O)/C=C/c2ccccc2F)c2c1CCCC2 -42.2%
O=C(COC(=O)Cc1n[nH]c(=O)c2ccccc12)NNC(=O)c1ccc(Br)cc1 -35.2%
CCN(C(=O)COC(=O)c1ccc[nH]c1=O)c1cccc2ccccc12 -31.3%
Nc1nc(Sc2ccc(C(F)(F)F)cc2[N+](=O)[O-])n[nH]1 -42.5%
O=C(OCC(=O)c1c[nH]c2ccccc12)c1ccc(Br)o1 -39.4%
CC(C)Oc1ccc(Cn2c(-c3ccco3)n[nH]c2=S)cc1 -35.5%

Following part:

Max response, negative = inhibition, inactive:
Oc1ccc2ccccc2c1-c1sc(Nc2ccccc2)n[n+]1-c1ccc(F)cc1 -7.06%
CCCCn1c(SCC(=O)Nc2cc(C(F)(F)F)cc(C(F)(F)F)c2)nnc1C(CC)N(C)C (stereo unspecified) -4.46%
COc1ccccc1CN1C[C@@H]2C[C@@H](C3=Cc4cccc(OC)c4OC3)N3CCC[C@@]23C1=O -3.65%
Cc1ccc(C(=O)CN2CCN(c3ccccn3)CC2)c(C)c1 11.3%
O=C(CN1CCN(c2ccc(O)cc2)CC1)Nc1ccc2c(c1)OCCO2 4.12%
COc1cc(-c2noc(C)c2/C=C/c2ccc(N)cc2)cc(OC)c1OC -6.31%
C/C(Cn1cnc([N+](=O)[O-])n1)=N/NC(=O)COc1c(Cl)cc(Cl)cc1Cl 2.37%
CC(C)NC(=O)C1Cc2c(-c3ccc4c(c3)OCO4)ccnc2O1 (stereo unspecified) -18.7%
CCC(=O)N1CCC(C)(C(=O)NCc2cccc(OC)c2)C1 (stereo unspecified) -2.27%
Cc1ccc(C(=O)N2CCN(c3ccc(NC(=O)COc4ccccc4C)cc3)CC2)cc1 43.4%
CCN1/C(=C/C=C/c2oc3ccc(-c4ccccc4)cc3[n+]2CC)Oc2ccc(-c3ccccc3)cc21 -4.96%
COc1cc(CNc2ccccc2SC)cc(OC)c1OC 8.27%
CN(CC(=O)Nc1cc(Cl)cc(Cl)c1)Cc1cccs1 -13%
COc1cccc(C(=O)OC(C)CN2CCCC2)c1 (stereo unspecified) -6.28%
Cn1c(N)c(C(=O)Nc2ccccc2)c(=O)[nH]c1=O 1.31%
COc1ccc(CN2C[C@@H](CO)O[C@@H](n3cnc4c(NCc5cc(OC)c(OC)c(OC)c5)ncnc43)C2)cc1 -23.3%
O=C(Nc1ccc(N2CCOCC2)c(Cl)c1)c1cccnc1 -4.88%
CC(C)C[C@H]1CN([C@@H](CC(C)C)CN2CCCC2CN2C(=S)NC[C@@H]2Cc2ccc(O)cc2)C(=S)N1CC1CCCCC1 (stereo partly specified) -8.45%
COc1cc(OC)cc(C(=O)NNC(=O)c2ccccn2)c1 1.29%
CCCn1nc(C(=O)Nc2cccc(S(=O)(=O)N3CCOCC3)c2)c2ccccc2c1=O 22.6%
COc1ccc(C2OC3=C(Nc4cc(C)c(C)cc4N3)C2=O)cc1 (stereo unspecified) 2.62%
CC[C@@H](C)[C@@H](C(=O)N1CCN(C(=O)OC(C)(C)C)CC1)n1cc(CCCCNC(=O)OC(C)(C)C)nn1 142%
C=CCNC1=C(Cl)C(=O)c2ccccc2C1=O -10.4%

Max response, negative = inhibition, active:
CN(C)CCCn1c(NC(=O)C2CCCCC2)nc2ccccc21 -51.6%
CC1CCN(CCCOc2ccc(Cl)cc2Br)CC1 -89.3%
COc1ccc(S(=O)(=O)/N=C2\C=C(NS(=O)(=O)c3ccccc3)C(=O)c3ccccc32)cc1 -59.6%
COc1cc(CN2CCN(C(c3ccccc3)c3ccccc3)CC2)cc(OC)c1OC -84.6%
Cc1ccc2sc(N(CCN(C)C)C(=O)/C=C/c3cccs3)nc2c1C -69.2%
CCOC(=O)C1(CCOc2ccccc2)CCN(Cc2ccc3c(c2)OCCO3)CC1 -56.1%
Cn1nnc(NC(=S)NC(=O)c2ccco2)n1 -72.5%
CN(C)CCOc1ccc(/C(=C(/CCCl)c2ccccc2)c2ccccc2)cc1 -91.4%
CC(=O)NCCOc1ccc(C(=O)O)cc1 -54.8%
Cc1ccc(NC(=S)NNC(=O)c2nn(C)cc2Cl)cc1 -53.7%
O=C(NNC(=O)c1cccc(Br)c1)Nc1ccc(Cl)cc1 -66.7%
